Reference: PMC10868794

Legend:
MBP-ZmARF1 [1] = assay: competition EMSA; conditions: LightShift Chemiluminescent EMSA Kit binding buffer (composition, salt and pH not stated), 10 uL reaction, 20 fmol biotin probe, 25 C 30 min, 7% polyacrylamide gel, recombinant protein, protein details: MBP (N-terminal), label: none (unlabeled competitor)
MBP-ZmARF1 [2] = assay: EMSA; conditions: LightShift Chemiluminescent EMSA Kit binding buffer (composition, salt and pH not stated), 10 uL reaction, 20 fmol biotin probe, 25 C 30 min, 7% polyacrylamide gel; recombinant protein; protein details: MBP (N-terminal); label: 5' biotin
MBP = MBP (UniProt P0AEX9); assay: EMSA; conditions: tag-only control; LightShift Chemiluminescent EMSA Kit binding buffer (composition, salt and pH not stated), 10 uL reaction, 20 fmol biotin probe, 25 C 30 min, 7% polyacrylamide gel; recombinant protein; label: 5' biotin
MBP-ZmERF2 (Zea mays) [3] = assay: competition EMSA; conditions: LightShift Chemiluminescent EMSA Kit binding buffer (composition, salt and pH not stated), 10 uL reaction, 20 fmol biotin probe, 25 C 30 min, 7% polyacrylamide gel, recombinant protein, protein details: MBP (N-terminal), label: none (unlabeled competitor)
MBP-ZmERF2 (Zea mays) [4] = assay: EMSA; conditions: LightShift Chemiluminescent EMSA Kit binding buffer (composition, salt and pH not stated), 10 uL reaction, 20 fmol biotin probe, 25 C 30 min, 7% polyacrylamide gel; recombinant protein; protein details: MBP (N-terminal); label: 5' biotin

ACTGGGCCGGCATCATCCGGAACGCCACTGGGCCGGCATCATCCGGAACGCCACTGGGCCGGCATCATCCGGAACGCC (double strand) [GC-box mutant competitor (mu-pLBD1)]
binding result (MBP-ZmARF1 [1]; mutant competitor against N1, no effect on shifted band): no binding

ACTGGGCCGGCCGCCGCCGGAACGCCACTGGGCCGGCCGCCGCCGGAACGCCACTGGGCCGGCCGCCGCCGGAACGCC (double strand) [Bio-pLBD1 GC-box probe]
binding result (MBP-ZmARF1 [2]): binds | binding result (MBP): no binding

ACTGGGCCGGCCGCCGCCGGAACGCCACTGGGCCGGCCGCCGCCGGAACGCCACTGGGCCGGCCGCCGCCGGAACGCC (double strand) [GC-box unlabeled competitor]
binding result (MBP-ZmARF1 [1]; unlabeled competitor 5x to 50x against N1): binds

AGTAGAATAGTAATTGTGTTTTTCTCTAATATACTATAATTGTGAAATTTTCAAGCCACTAGTAATTGCTAGTTAATT (double strand) [ABRE mutant competitor (mu-pZmARF1)]
binding result (MBP-ZmERF2 (Zea mays) [3]; mutant competitor against N4, no effect on shifted band): no binding

AGTAGAATAGTACGTGTGTTTTTCTCTAATATACTATACGTGTGAAATTTTCAAGCCACTAGTACGTGCTAGTTAATT (double strand) [ABRE unlabeled competitor]
binding result (MBP-ZmERF2 (Zea mays) [3]; increasing unlabeled competitor against N4): binds

AGTAGAATAGTACGTGTGTTTTTCTCTAATATACTATACGTGTGAAATTTTCAAGCCACTAGTACGTGCTAGTTAATT (double strand) [Bio-pZmARF1 ABRE probe]
binding result (MBP-ZmERF2 (Zea mays) [4]): binds

For some of these results: No signal at the amounts used counts as a negative. For some of these results: The exact form of at least one protein or probe is not confirmed.
